For this experiment, the target named is CSNK1A1 (Homo sapiens (Human), UniProt P48729). The experiment is described as follows: CSNK1A1 Assay 1 (ADP-Glo, 1 μM ATP). Conditions: read-out: CSNK1A1 Assay 1 IC50 [mol/l] (median), comparison compounds of WO 2016/120196. A general note: In ADP-Glo the light output rises with the ADP produced.

By UniProt entry, the sequences of proteins in these tests, tags left out.
UniProt P48729, whole entry: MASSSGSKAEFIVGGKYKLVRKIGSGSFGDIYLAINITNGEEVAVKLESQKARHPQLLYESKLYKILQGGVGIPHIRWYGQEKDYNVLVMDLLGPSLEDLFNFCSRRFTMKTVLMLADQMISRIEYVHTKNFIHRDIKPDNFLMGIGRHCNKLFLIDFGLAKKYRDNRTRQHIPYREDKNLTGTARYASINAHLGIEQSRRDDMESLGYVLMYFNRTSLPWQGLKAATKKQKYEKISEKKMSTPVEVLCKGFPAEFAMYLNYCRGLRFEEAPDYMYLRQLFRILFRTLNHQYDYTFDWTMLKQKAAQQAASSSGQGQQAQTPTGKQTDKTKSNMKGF

For part of its entries the source gives two or more results. This is not the full list of results. The source may hold further records. Values given together differ for a reason that is not stated; dose, time, organism, isomer or construct need not be as stated for each record.

Consider `CN1CCc2[nH]c(-c3ccnc(NC(=O)C4CC4)c3)c(Nc3ccccc3)c2C1=O`, for which the IC50 is listed as 9.32, 10.1, 5.57, 4.38 nM.

For the origin of these results see patent US20230322767A1, “ARYL SUBSTITUTED PYRROLO-PYRIDINONES AND THERAPEUTIC USES THEREOF” (Bayer Aktiengesellschaft, priority 2020, published 2023).
